The source of these data is paper PMC11087256.

By UniProt entry, the sequences of proteins in these tests, tags left out. Residues count along the entry.
UniProt P03188, residues 22-857: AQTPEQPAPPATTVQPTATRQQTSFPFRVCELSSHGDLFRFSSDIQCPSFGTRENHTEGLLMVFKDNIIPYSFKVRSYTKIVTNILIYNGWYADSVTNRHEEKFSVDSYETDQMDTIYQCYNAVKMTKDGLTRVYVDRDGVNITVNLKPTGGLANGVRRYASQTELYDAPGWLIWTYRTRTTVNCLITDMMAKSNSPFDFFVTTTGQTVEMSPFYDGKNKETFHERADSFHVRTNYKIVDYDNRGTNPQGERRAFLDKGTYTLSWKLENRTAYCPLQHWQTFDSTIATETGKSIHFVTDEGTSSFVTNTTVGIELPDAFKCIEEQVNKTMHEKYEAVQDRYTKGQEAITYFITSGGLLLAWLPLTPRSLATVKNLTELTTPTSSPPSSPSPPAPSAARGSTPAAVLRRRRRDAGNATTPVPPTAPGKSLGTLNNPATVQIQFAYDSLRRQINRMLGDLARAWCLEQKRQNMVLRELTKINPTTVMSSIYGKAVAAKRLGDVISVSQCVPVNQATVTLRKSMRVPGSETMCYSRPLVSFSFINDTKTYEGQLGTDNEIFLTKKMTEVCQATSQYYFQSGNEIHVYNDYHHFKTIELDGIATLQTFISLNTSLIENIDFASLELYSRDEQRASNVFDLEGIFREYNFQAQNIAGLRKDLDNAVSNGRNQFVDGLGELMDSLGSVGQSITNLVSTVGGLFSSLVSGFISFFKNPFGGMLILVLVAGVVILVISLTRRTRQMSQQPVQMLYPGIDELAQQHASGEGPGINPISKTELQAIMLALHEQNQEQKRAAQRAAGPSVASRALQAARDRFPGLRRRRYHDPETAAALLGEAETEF
UniProt P13164: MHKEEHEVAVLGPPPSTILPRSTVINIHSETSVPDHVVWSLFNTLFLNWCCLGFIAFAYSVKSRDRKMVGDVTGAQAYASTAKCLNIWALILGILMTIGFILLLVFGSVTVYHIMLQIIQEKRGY
UniProt P29317, residues 24-976: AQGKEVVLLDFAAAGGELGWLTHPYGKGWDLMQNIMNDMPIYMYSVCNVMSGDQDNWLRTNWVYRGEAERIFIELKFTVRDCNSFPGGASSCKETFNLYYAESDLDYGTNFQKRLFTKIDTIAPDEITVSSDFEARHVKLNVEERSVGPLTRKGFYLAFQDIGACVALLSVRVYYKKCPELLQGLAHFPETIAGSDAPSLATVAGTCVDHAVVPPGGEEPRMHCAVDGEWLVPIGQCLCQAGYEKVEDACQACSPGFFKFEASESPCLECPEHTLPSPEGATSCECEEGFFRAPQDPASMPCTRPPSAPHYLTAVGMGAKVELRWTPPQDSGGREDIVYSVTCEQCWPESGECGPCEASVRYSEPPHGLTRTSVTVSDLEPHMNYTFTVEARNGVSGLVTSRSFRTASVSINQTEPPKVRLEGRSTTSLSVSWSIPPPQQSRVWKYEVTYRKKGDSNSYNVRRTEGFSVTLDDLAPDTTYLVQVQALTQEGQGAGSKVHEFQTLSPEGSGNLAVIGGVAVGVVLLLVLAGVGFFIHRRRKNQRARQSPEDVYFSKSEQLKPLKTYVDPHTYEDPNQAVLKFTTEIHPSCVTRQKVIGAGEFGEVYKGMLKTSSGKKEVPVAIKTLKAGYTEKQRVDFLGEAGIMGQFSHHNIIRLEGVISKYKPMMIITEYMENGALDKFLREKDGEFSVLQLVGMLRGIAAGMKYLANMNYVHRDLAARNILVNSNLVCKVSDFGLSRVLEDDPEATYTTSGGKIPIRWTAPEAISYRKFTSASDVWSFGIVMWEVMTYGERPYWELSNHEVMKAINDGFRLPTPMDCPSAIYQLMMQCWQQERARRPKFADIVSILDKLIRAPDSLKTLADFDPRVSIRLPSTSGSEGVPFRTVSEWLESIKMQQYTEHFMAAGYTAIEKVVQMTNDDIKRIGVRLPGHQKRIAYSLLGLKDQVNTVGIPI
UniProt Q92841: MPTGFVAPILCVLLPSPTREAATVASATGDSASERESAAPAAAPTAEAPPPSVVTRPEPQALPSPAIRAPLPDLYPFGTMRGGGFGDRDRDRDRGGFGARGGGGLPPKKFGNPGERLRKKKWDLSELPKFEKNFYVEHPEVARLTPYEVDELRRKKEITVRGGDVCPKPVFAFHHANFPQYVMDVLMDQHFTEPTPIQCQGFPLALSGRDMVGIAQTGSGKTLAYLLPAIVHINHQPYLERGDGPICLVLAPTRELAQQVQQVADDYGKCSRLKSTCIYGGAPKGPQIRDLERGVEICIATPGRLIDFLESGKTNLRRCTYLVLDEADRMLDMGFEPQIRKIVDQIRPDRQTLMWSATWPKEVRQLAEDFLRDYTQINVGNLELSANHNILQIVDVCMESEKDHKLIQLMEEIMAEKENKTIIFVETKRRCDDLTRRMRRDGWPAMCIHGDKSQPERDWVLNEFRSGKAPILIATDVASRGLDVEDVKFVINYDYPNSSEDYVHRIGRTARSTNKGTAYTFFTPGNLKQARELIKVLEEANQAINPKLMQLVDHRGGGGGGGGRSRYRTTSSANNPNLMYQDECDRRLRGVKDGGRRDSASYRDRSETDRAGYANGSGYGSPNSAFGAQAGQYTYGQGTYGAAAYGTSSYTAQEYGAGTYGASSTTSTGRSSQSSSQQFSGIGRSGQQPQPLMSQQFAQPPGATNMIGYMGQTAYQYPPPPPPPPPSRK
UniProt P17844: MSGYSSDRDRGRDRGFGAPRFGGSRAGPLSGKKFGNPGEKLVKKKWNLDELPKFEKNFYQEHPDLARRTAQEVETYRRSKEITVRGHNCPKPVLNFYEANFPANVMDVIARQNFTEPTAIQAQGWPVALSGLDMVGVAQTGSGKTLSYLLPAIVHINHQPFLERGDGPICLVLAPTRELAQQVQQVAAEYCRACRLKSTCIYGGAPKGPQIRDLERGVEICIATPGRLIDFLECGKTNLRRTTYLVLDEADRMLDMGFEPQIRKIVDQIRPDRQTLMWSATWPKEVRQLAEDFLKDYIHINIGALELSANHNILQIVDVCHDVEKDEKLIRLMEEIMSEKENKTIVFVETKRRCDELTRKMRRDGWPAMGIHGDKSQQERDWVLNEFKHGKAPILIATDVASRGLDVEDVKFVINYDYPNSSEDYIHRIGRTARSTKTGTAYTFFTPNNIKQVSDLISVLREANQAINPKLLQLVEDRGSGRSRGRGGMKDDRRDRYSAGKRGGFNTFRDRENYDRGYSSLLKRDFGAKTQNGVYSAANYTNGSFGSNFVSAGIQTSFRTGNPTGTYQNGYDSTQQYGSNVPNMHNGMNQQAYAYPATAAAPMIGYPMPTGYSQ

No constants are given. Whether binding was seen depends on the method and setting. In cells and extracts the contact can be indirect. Some results given as binding are weak or reduced against the parent protein; the word gives no strength.

Assay [1] has as its target T1, YTH-domain family protein 3 (YTHDF3), endogenous (human (endogenous in HK1)) (UniProt Q7Z739).
T1 sequence: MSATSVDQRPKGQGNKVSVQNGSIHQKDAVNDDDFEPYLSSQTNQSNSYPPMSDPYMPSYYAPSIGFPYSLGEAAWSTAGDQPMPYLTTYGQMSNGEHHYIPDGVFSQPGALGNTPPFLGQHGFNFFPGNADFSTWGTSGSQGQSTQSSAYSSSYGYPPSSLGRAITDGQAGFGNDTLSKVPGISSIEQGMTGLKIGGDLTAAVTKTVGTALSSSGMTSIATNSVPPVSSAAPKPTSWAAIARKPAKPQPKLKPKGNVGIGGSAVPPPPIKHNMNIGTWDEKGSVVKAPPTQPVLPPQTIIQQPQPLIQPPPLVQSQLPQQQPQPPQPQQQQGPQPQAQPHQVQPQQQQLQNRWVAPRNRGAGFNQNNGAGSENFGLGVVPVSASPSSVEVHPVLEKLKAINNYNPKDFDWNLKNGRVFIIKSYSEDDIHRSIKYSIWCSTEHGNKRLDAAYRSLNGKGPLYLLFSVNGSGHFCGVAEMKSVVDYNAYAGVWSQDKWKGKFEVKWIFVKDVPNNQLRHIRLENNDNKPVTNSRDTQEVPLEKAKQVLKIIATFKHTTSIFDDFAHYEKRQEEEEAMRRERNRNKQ
Nature of the assay: co-IP; endogenous proteins; HK1 cell lysates precipitated with YTHDF3 antibody, immunoblot with DDX5, DDX6 and DDX17 antibodies; IgG-IP as control.

The target of assay [2] is Myc-gB (EBV glycoprotein B) (Epstein-Barr virus) (UniProt P03188). The assay is described as follows: co-IP; HEK293 cells transfected with three plasmids 1:1:1 (Myc-gH/gL or Myc-gB, EphA2 or endogenous EphA2, IFITM1 / empty vector / shIFITM1 / shLacZ / IFITM1^w / IFITM1^m1+2); lysates precipitated with anti-Myc antibody, immunoblot with anti-EphA2, Myc and IFITM1 antibodies.

The target in assay [3] is Interferon-induced transmembrane protein-1 (IFITM1), endogenous (human (endogenous in NP69 and HK1)) (UniProt P13164). The assay is described as follows: co-IP; endogenous proteins; NP69 and HK1 cell lysates precipitated with IFITM1 antibody, immunoblot with EphA2 antibody; IgG-IP as control. For orientation: In western blotting, separated proteins are transferred to a membrane and probed.

Assay [4] deals with EphA2, overexpressed in HEK293 cells (UniProt P29317). The assay is described as follows: co-IP; HEK293 cells transfected with three plasmids 1:1:1 (Myc-gH/gL or Myc-gB, EphA2 or endogenous EphA2, IFITM1 / empty vector / shIFITM1 / shLacZ / IFITM1^w / IFITM1^m1+2); lysates precipitated with anti-Myc antibody, immunoblot with anti-EphA2, Myc and IFITM1 antibodies.

On to “DDX17, endogenous (from UniProt Q92841 1-729)”, for which the binding entry in assay [1] was “binds”.
On to “DEAD-box protein 5 (DDX5), endogenous (from UniProt P17844 1-614)”, for which the binding result in assay [1] was “binds”.
For “EphA2, overexpressed in HEK293 cells (from UniProt P29317 24-976) (receptor)”, in assay [2], the binding entry is on record as “binds”.
As to “Ephrin receptor A2 (EphA2), endogenous (from UniProt P29317 24-976)”, the binding result in assay [3] and in assay [2] was “binds” throughout.
As for “IFITM1, overexpressed in HEK293 cells (wild type) (from UniProt P13164 1-125)”, the binding result in assay [4] is “binds”.
